# Data taken from PubChem BioAssay AID2685 (National Center for Advancing Translational Sciences (NCATS), 2010).
# Some of the results follow. These are further read-outs of the screen, such as a control signal, another cell line or another target. No call is given for them. Most of these compounds were active or inconclusive in the main read-out, so they are no random draw. Potencies come from curve fits of mixed quality, noted in brackets.
# Assay: qHTS Assay for Lipid Storage Modulators in Drosophila S3 Cells;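 for cell number change: cells counted by Cell Tracker Red CMTPX staining in the red channel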
# Details: BODIPY lipid droplet fluorescence, 18-24 h; for cell number change: measured here: cell count max response, cells fed with added oleic acid
# Method in brief: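 Drosophila S3 cells loaded with oleic acid (400 uM, as added) and compounds at several concentrations; lipid droplets imaged by 488-nm laser-scanning cytometry, 500–530 nm intensity and object ratio to cell channel. Percent activity normalized to 20 uM Triacsin C.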
# [1] = measured here: lipid fluorescence (Fed channel) AC50, cells fed with added oleic acid
# [2] = measured here: cell number channel AC50, cells fed with added oleic acid
smiles,measurement,setting,value
CCc1cccc(NC(=O)CCCn2nc(CC)n3c(cc4occc43)c2=O)c1,AC50,[1],"16.4 µM [falling, partial curve]"
O=C(Nc1cccc(S(=O)(=O)C(F)F)c1)c1ccc(Cl)c(S(=O)(=O)N2CCOCC2)c1,AC50,[1],"0.517 µM [rising, full curve]"
O=C(Nc1ccccc1)c1ccc2c(c1)OCCCO2,cell number change,,30.1%
Cc1cc(C)cc(N(C(=O)c2csnn2)C(C(=O)NC2CCCCC2)c2cccnc2)c1 (stereo not drawn),cell number change,,29%
COc1ccccc1CC(=O)NNS(=O)(=O)c1ccc([N+](=O)[O-])cc1,cell number change,,20.1%
same,AC50,[1],"0.13 µM [rising, full curve, poor fit]"
O=C(NN=C1CCCCCCCCCCC1)c1ccccc1F,cell number change,,-2.44%
same,AC50,[1],"25.9 µM [rising, single point]"
Cc1nnc(SCC(=O)Nc2ncc3c(n2)CCCC3=O)s1,cell number change,,-12.5%
same,AC50,[1],"0.0058 µM [falling, full curve, poor fit]"
CC(C)C(C(=O)Nc1ccncc1)c1ccc(Cl)cc1 (stereo not drawn),cell number change,,-30.3%
same,AC50,[2],"23.1 µM [falling, single point]"
CN(CCO)CC(O)Cn1cnc2c1c(=O)n(C)c(=O)n2C (stereo not drawn) (tested in a mixture with another compound),cell number change,,6.75%
same,AC50,[1],"0.651 µM [rising, full curve, poor fit]"
CCOC(=O)c1[nH]c(C)c(C(=O)N2CCN(c3cccc(Cl)c3)CC2)c1C,AC50,[1],"6.51 µM [falling, single point]"
O=C1NCCCC1C(=O)N1CCN(C(=O)c2ccco2)CC1 (stereo not drawn),cell number change,,3.22%
same,AC50,[1],"0.82 µM [falling, full curve]"
O=c1cc(N=Nc2ccc(Cl)cc2)[nH]c(=O)[nH]1,cell number change,,-35.5%
same,AC50,[2],"2.31 µM [falling, full curve, poor fit]"
same,AC50,[1],"0.731 µM [falling, full curve]"
O=C(N/N=C/c1c[nH]c2ccccc12)c1ccn(Cc2ccc(Cl)cc2)n1,cell number change,,-29.2%
Nn1c(SCC(=O)Nc2cccc(S(N)(=O)=O)c2)nnc1C1CC1,cell number change,,-18.6%
CNC(=O)NC(=O)C(c1ccccc1)N(C)CC1COc2ccccc2O1 (stereo not drawn),cell number change,,33.9%
same,AC50,[1],"2.91 µM [rising, single point]"
CCNC(=S)NNC(=O)c1ccc2ncccc2c1,cell number change,,1.2%
same,AC50,[2],"5.8 µM [rising, single point]"
same,AC50,[1],"5.17 µM [rising, single point]"
Cc1ccc(S(=O)(=O)Nc2nc3n(n2)C(c2ccc(Cl)cc2)CC(=O)N3)cc1 (stereo not drawn),cell number change,,-0.163%
same,AC50,[1],"7.31 µM [falling, single point]"
COc1ccccc1CNC(=O)c1cc(C(C)C)nc2ccccc12,cell number change,,-1.21%
same,AC50,[1],"0.184 µM [rising, full curve, poor fit]"
Cc1ccc(-n2ncc3c(SCc4cccnc4)ncnc32)c(C)c1,cell number change,,-18.3%
same,AC50,[1],"0.00411 µM [falling, full curve, poor fit]"
CCCCNC(=O)C(=O)NCCCn1ccnc1,cell number change,,40.1%
same,AC50,[2],"2.06 µM [rising, partial curve]"
same,AC50,[1],"23.1 µM [rising, single point]"
CC(=O)c1ccc(S(=O)(=O)NC(=O)NC2CCCCC2)cc1,cell number change,,32.9%
same,AC50,[2],"4.11 µM [rising, full curve, poor fit]"
same,AC50,[1],"29.1 µM [rising, single point]"
Cc1ccc([C@@H]2CC=C(C(=O)O)CN2S(=O)(=O)c2ccccc2C)cc1,cell number change,,-13.9%
same,AC50,[2],"4.11 µM [falling, single point]"
same,AC50,[1],"3.66 µM [falling, single point]"
O=C(N/N=C/c1ccc(F)cc1)c1ccc(OCc2ccccc2)cc1,cell number change,,26.6%
same,AC50,[2],"1.16 µM [rising, full curve, poor fit]"
same,AC50,[1],"29.1 µM [rising, single point]"
Fc1cccc(CCN2CCNC[C@H]2Cc2cccc3ccccc23)c1,AC50,[1],"0.517 µM [falling, partial curve]"
CN(C)CCOc1cccc(Br)c1,cell number change,,-13.2%
same,AC50,[1],"35.5 µM [falling, single point]"
O=C(Cc1ccc(Cl)cc1)Nc1ccc(SC(F)F)cc1,cell number change,,-36.8%
same,AC50,[2],"32.6 µM [falling, partial curve, poor fit]"
same,AC50,[1],"6.51 µM [falling, single point]"
COc1ccc(OC)c(NC(=O)c2ccc(CN(c3cc(Cl)ccc3C)S(=O)(=O)c3ccccc3)cc2)c1,cell number change,,-16.5%
same,AC50,[1],"1.84 µM [falling, full curve, poor fit]"
COc1ccc(C2Nc3ccccc3C(=O)N2NS(C)(=O)=O)c(OC)c1 (stereo not drawn),cell number change,,33.3%
same,AC50,[2],"32.6 µM [rising, single point]"
same,AC50,[1],"29.1 µM [rising, partial curve, poor fit]"
COc1cc(NC(=O)c2ccc(C)cc2C)ccc1NC(=O)c1cc2ccccc2o1,cell number change,,-10.8%
O=C(COc1c(Br)cc(Br)c2cccnc12)N1CCCCC1,AC50,[2],"6.51 µM [rising, single point]"
Cc1cc(S(=O)(=O)NC2CCCCC2)ccc1OCC(=O)NCc1ccccn1,AC50,[2],"0.731 µM [rising, full curve]"
same,AC50,[1],"0.92 µM [rising, full curve]"
CCc1nnc(NC(=O)CSc2nnc(-c3ccccc3O)n2-c2ccc(C)cc2C)s1,cell number change,,-40.3%
same,AC50,[2],"20.6 µM [falling, single point]"
same,AC50,[1],"29.1 µM [falling, single point]"
CCCCNC(=O)Cn1cnc2c(cnn2-c2ccc(C)c(C)c2)c1=O,cell number change,,21.6%
same,AC50,[2],"1.3 µM [rising, single point]"
same,AC50,[1],"1.3 µM [rising, full curve]"
O=C(CCCCl)NC(=S)Nc1ccc(CN2CCOCC2)cc1,cell number change,,-38.2%
same,AC50,[2],"29.1 µM [falling, single point]"
same,AC50,[1],"29.1 µM [falling, single point]"
CCc1c(C)nc2ncnn2c1N1CCCC(C(=O)Nc2cc(F)ccc2C)C1 (stereo not drawn),cell number change,,-45.5%
same,AC50,[1],"0.058 µM [rising, full curve, poor fit]"
CN1CCN(c2ccccc2NC(=O)COc2ccccc2)CC1,cell number change,,9.14%
same,AC50,[1],"0.731 µM [falling, full curve]"
CCOc1ccccc1NC(=O)c1cnc(NS(=O)(=O)c2ccccc2)nc1,cell number change,,-2.56%
same,AC50,[1],"0.00461 µM [rising, full curve, poor fit]"
CCC1CCc2c(sc(NC(=O)c3ccco3)c2C(N)=O)C1 (stereo not drawn),cell number change,,-50.7%
same,AC50,[2],"29.1 µM [falling, single point]"
same,AC50,[1],"29.1 µM [falling, single point]"
O=C(O)C1CCN(C(=O)CSc2nc3ccccc3s2)CC1,cell number change,,11.8%
same,AC50,[1],"3.66 µM [falling, single point]"
COc1ccc(NC(=O)C(C)N(C)Cc2ccc3ccccc3c2)cc1 (stereo not drawn),cell number change,,-26.7%
same,AC50,[1],"6.51 µM [falling, single point]"
FC(F)(F)c1ccc(Cl)c(N/N=C/c2ccc(N3CCOCC3)s2)c1,cell number change,,-75.6%
same,AC50,[2],"23.1 µM [falling, partial curve]"
same,AC50,[1],"18.4 µM [falling, partial curve, poor fit]"
CN1CCN(/C=N/c2c(C#N)cnn2C)CC1,cell number change,,-27.5%
same,AC50,[1],"29.1 µM [falling, single point]"
CCOC(=O)Cc1csc(NC(=O)COc2ccccc2OCC)n1,cell number change,,-22.5%
same,AC50,[1],"0.651 µM [falling, full curve, poor fit]"
O=C(CCC(=O)Nc1ccccc1Cl)N/N=C1\CCCc2ccccc21,cell number change,,2.19%
same,AC50,[1],"2.59 µM [rising, single point]"
CN(C)CCCN(C(=O)c1ccc2c(c1)CCCC2)c1nc2ccc(Cl)cc2s1,cell number change,,-38.4%
same,AC50,[2],"23.1 µM [falling, single point]"
same,AC50,[1],"29.1 µM [falling, single point]"
CCCN(C(=O)COC(=O)Cn1c(=O)oc2ccccc21)c1c(N)n(Cc2ccccc2)c(=O)[nH]c1=O,cell number change,,-9.49%
same,AC50,[1],"6.51 µM [falling, single point]"
CCOC(=O)Cn1nc(-c2ccccc2)c2cnc3ccc(C)cc3c21,cell number change,,-57.1%
same,AC50,[2],"11.6 µM [falling, partial curve]"
same,AC50,[1],"8.2 µM [falling, partial curve]"
COc1ccc(S(=O)(=O)N(CC(=O)NCc2ccncc2)Cc2ccccc2)cc1,cell number change,,27.6%
O=C(OCCN=C1NS(=O)(=O)c2ccccc21)c1ccccc1,cell number change,,-28.7%
same,AC50,[2],"0.731 µM [falling, full curve, poor fit]"
same,AC50,[1],"1.64 µM [falling, partial curve]"
O=C(CSc1nnc(-c2cccnc2)n1Cc1ccccc1)N1CCOCC1,cell number change,,32.1%
same,AC50,[2],"0.164 µM [rising, full curve]"
same,AC50,[1],"3.26 µM [rising, single point]"
C=CCn1cnc2c(nnn2-c2ccc(OC)c(OC)c2)c1=O,cell number change,,153%
same,AC50,[2],"29.1 µM [rising, single point]"
Cc1ccccc1-n1ncc(C(C)NS(=O)(=O)c2ccccc2Cl)c1C (stereo not drawn),cell number change,,-1.13%
same,AC50,[1],"0.517 µM [rising, single point]"
Cc1ccc(C(=O)OC(C(=O)O)C(OC(=O)c2ccc(C)cc2)C(=O)O)cc1 (stereo not drawn),cell number change,,-25.6%
same,AC50,[1],"16.4 µM [falling, single point]"
COc1ccc(/C=N/NC(=S)Nc2ccccc2)cc1COc1ccccc1F,AC50,[1],"0.731 µM [rising, full curve]"
CCOC(=O)c1c(CC(C)C)csc1NC(=O)CCl,cell number change,,12.9%
same,AC50,[1],"20.6 µM [rising, single point]"
CCOc1ccc(CCNC(=O)c2cc(C)nn2-c2ccccc2)cc1,cell number change,,56.5%
same,AC50,[2],"1.64 µM [rising, partial curve, poor fit]"
same,AC50,[1],"5.17 µM [rising, partial curve]"

# Three records picked at random from the list so far, as already listed:
smiles,measurement,setting,value
CCCCNC(=O)Cn1cnc2c(cnn2-c2ccc(C)c(C)c2)c1=O,AC50,[1],"1.3 µM [rising, full curve]"
CC(C)C(C(=O)Nc1ccncc1)c1ccc(Cl)cc1 (stereo not drawn),AC50,[2],"23.1 µM [falling, single point]"
Cc1ccc(S(=O)(=O)Nc2nc3n(n2)C(c2ccc(Cl)cc2)CC(=O)N3)cc1 (stereo not drawn),cell number change,,-0.163%
